From the supplement of paper PMC6418307
Single values of this set are uncertain.

Tested on: primary mouse cortical neurons
Experiment: cell health score (luciferase spike-in reads / total reads per well) (fraction); higher = fewer cellular reads, worse cell health / toxicity
Conditions: treatment time 24 h
[1] = 0.01 µM, sex of neuron culture: Female
[2] = 0.01 µM, sex of neuron culture: Male
[3] = 0.1 µM, sex of neuron culture: Female
[4] = 0.1 µM, sex of neuron culture: Male
[5] = 1 µM, sex of neuron culture: Female
[6] = 1 µM, sex of neuron culture: Male
[7] = 10 µM, sex of neuron culture: Female
[8] = 10 µM, sex of neuron culture: Male

SMILES	cell health score [1]	cell health score [2]	cell health score [3]	cell health score [4]	cell health score [5]	cell health score [6]	cell health score [7]	cell health score [8]
CNC(=O)Oc1cccc2ccccc12 [Carbaryl]	0.000454	0.00071	0.00112	0.000927	0.00104	0.000811	0.00145	0.000427
CC1=C(C(=O)Nc2ccccc2)SCCO1 [Carboxin]	0.000448	0.000851	0.000925	0.000866	0.000809	0.000485	0.00106	0.000742
CCOC(=O)C(Cl)Cc1cc(-n2nc(C)n(C(F)F)c2=O)c(F)cc1Cl (centres undefined) [Carfentrazone-ethyl]	0.000528	0.00109	0.00111	0.00106	0.00117	0.00118	0.00128	0.000877
CCOP(=S)(OCC)OC(Cl)C(Cl)(Cl)Cl (centres undefined) [Chlorethoxyfos]	0.000428	0.00106	0.000528	0.000837	0.00094	0.000476	0.00101	0.000668
Nc1cnn(-c2ccccc2)c(=O)c1Cl [Chloridazon]	0.000892	0.00074	0.000824	0.000957	0.000802	0.000487	0.00113	0.000607
COc1cc(Cl)c(OC)cc1Cl [Chloroneb]	0.000921	0.000887	0.000549	0.000662	0.000859	0.000562	0.000821	0.000527
N#Cc1c(Cl)c(Cl)c(Cl)c(C#N)c1Cl [Chlorothalonil]	0.000502	0.000864	0.000884	0.000881	0.00117	0.000728	0.00396	0.00241
CC(C)OC(=O)Nc1cccc(Cl)c1 [Chlorpropham]	0.000693	0.00077	0.000881	0.000938	0.000694	0.000532	0.00115	0.000811
COP(=S)(OC)Oc1nc(Cl)c(Cl)cc1Cl [Chlorpyrifos-methyl]	0.000731	0.000934	0.000907	0.000741	0.00085	0.000876	0.00118	0.000503
Cc1ccccc1CO[C@@H]1C[C@@]2(C(C)C)CCC1(C)O2 [Cinmethylin]	0.000396	0.000893	0.00158	0.000639	0.000746	0.00069	0.00109	0.000945
O=C(O)c1cn(C2CC2)c2cc(N3CCNCC3)c(F)cc2c1=O [Ciprofloxacin]	0.000557	0.00116	0.000609	0.000682	0.000592	0.000644	0.000705	0.000511
C#CCOC(=O)[C@@H](C)Oc1ccc(Oc2ncc(Cl)cc2F)cc1 [Clodinafop-propargyl]	0.000507	0.000679	0.00109	0.00071	0.000727	0.000936	0.00101	0.000631
Clc1ccccc1-c1nnc(-c2ccccc2Cl)nn1 [Clofentezine]	0.000448	0.000724	0.000701	0.000836	0.000835	0.0006	0.000867	0.000494
CC1(C)CON(Cc2ccccc2Cl)C1=O [Clomazone]	0.000964	0.00098	0.000687	0.000733	0.000779	0.00082	0.000888	0.000372
CC(Oc1cccc(Cl)c1)C(=O)O (centres undefined) [Cloprop]	0.000593	0.000741	0.000871	0.000692	0.000668	0.000707	0.000786	0.000418
O=C(O)c1nc(Cl)ccc1Cl [Clopyralid-olamine]	0.000762	0.000937	0.00159	0.00083	0.000564	0.000512	0.00119	0.000501
O=C(O)c1nc(Cl)ccc1Cl [Clopyralid]	0.000511	0.00104	0.00197	0.000731	0.000739	0.00066	0.00117	0.00069
Oc1ccc(Cl)cc1Cc1ccccc1 [Clorophene]	0.000554	0.000765	0.000707	0.000864	0.000722	0.000594	0.00102	0.00084
CN/C(=N\[N+](=O)[O-])NCc1cnc(Cl)s1 [Clothianidin]	0.00144	0.000882	0.00118	0.000751	0.00107	0.000999	0.00101	0.000576
CCOP(=S)(OCC)Oc1ccc2c(C)c(Cl)c(=O)oc2c1 [Coumaphos]	0.000737	0.000584	0.00182	0.000927	0.000858	0.000474	0.00128	0.000559
COc1cc(/C=C/C(=O)CC(=O)/C=C/c2ccc(O)c(OC)c2)ccc1O [Curcumin]	0.000432	0.000598	0.00112	0.000837	0.00128	0.00134	0.00104	0.00154
N#CN [Cyanamide]	0.000639	0.00074	0.00126	0.000939	0.000709	0.000633	0.000866	0.000906
CCNc1nc(Cl)nc(NC(C)(C)C#N)n1 [Cyanazine]	0.000606	0.00061	0.000878	0.000781	0.00106	0.000597	0.00137	0.000492
Cc1ccc(-c2c(Cl)nc(C#N)n2S(=O)(=O)N(C)C)cc1 [Cyazofamid]	0.000573	0.000682	0.000838	0.000676	0.000982	0.000801	0.000929	0.000689
O=C(O)C1(C(=O)Nc2ccc(Cl)cc2Cl)CC1 [Cyclanilide]	0.00059	0.000719	0.000997	0.000781	0.000666	0.00123	0.00131	0.00137
CCSC(=O)N(CC)C1CCCCC1 [Cycloate]	0.000649	0.000901	0.000782	0.000825	0.00096	0.000529	0.00147	0.000497
CC1(C)C(C=C(Cl)Cl)C1C(=O)OC(C#N)c1ccc(F)c(Oc2ccccc2)c1 (centres undefined) [Cyfluthrin]	0.000457	0.000833	0.000792	0.00118	0.00116	0.000545	0.000822	0.000467
CCCCOC(=O)[C@H](C)Oc1ccc(Oc2ccc(C#N)cc2F)cc1 [Cyhalofop-butyl]	0.000658	0.000836	0.00149	0.000873	0.00118	0.000653	0.00112	0.000943

Some of the entries so far, bar-delimited.
SMILES | cell health score [1] | cell health score [2] | cell health score [3] | cell health score [4] | cell health score [5] | cell health score [6] | cell health score [7] | cell health score [8]
CNC(=O)Oc1cccc2ccccc12 [Carbaryl] | 0.000454 | 0.00071 | 0.00112 | 0.000927 | 0.00104 | 0.000811 | 0.00145 | 0.000427
N#CN [Cyanamide] | 0.000639 | 0.00074 | 0.00126 | 0.000939 | 0.000709 | 0.000633 | 0.000866 | 0.000906
